Values from PubChem BioAssay AID1224830 (NIAID, 2016)

Aim: 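Genes whose knock-down alters the TNF-alpha reporter response to LPS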 (primary screen)
Cell system: human THP-1 monocytic leukaemia cells, TNF dual-luciferase reporter clone, PMA-differentiated to macrophage-like cells
Reagent: siRNA pool against human genes, 50 nM
Time to read-out: LPS for 4 h, given about 3 days after siRNA transfection
Challenge: bacterial LPS (TLR4 ligand), 10 ng/ml
Measured: 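TNF firefly reporter luminescence divided by renilla, normalised to the plate median, then turned into a robust z-score for each replicate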
Direction: TNF reporter robust z-score: higher = stronger TNF reporter response to LPS
Active means: 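a well is active when its z-score exceeds 2.8 or falls below -1.5; control wells carry no call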
Here is an unselected part of about 18,000 reagents tested. Over the whole deposit, about 2,900 (16%) got an active call. 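Calls are made per well; low scores hint the gene aids the LPS response, high scores that it dampens it.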 Entries without a mark were called inactive. Reagents against one gene are numbered here. Repeated entries: four replicate wells of each siRNA pool. No sequences are given here.

target gene | pool no. | TNF reporter robust z-score
CSTPP1 (GeneID 79096) | 1 | -0.09
CSTPP1 (GeneID 79096) | 1 | 0.18
CSTPP1 (GeneID 79096) | 1 | 1.97
CSTPP1 (GeneID 79096) | 1 | -0.73
ZNF337 (GeneID 26152) | 1 | -0.18
ZNF337 (GeneID 26152) | 1 | -0.03
ZNF337 (GeneID 26152) | 1 | 0.01
ZNF337 (GeneID 26152) | 1 | 0.03
SLC7A6 (GeneID 9057) | 1 | 0.3
SLC7A6 (GeneID 9057) | 1 | 0.54
SLC7A6 (GeneID 9057) | 1 | 1.21
SLC7A6 (GeneID 9057) | 1 | 3.63 (active)
RAB23 (GeneID 51715) | 1 | -0.4
RAB23 (GeneID 51715) | 1 | -0.14
RAB23 (GeneID 51715) | 1 | 0.21
RAB23 (GeneID 51715) | 1 | -0.26
AGO2 (GeneID 27161) | 1 | 0.88
AGO2 (GeneID 27161) | 1 | 0.82
AGO2 (GeneID 27161) | 1 | 0.57
AGO2 (GeneID 27161) | 1 | 1.16
IRS1 (GeneID 3667) | 1 | -0.29
IRS1 (GeneID 3667) | 1 | -0.64
IRS1 (GeneID 3667) | 1 | -0.62
IRS1 (GeneID 3667) | 1 | -0.35
OR8H2 (GeneID 390151) | 1 | 0.52
OR8H2 (GeneID 390151) | 1 | 1.2
OR8H2 (GeneID 390151) | 1 | 1.47
OR8H2 (GeneID 390151) | 1 | 2.46
BMP6 (GeneID 654) | 1 | 0.44
BMP6 (GeneID 654) | 1 | 2.1
BMP6 (GeneID 654) | 1 | 0.84
SAPCD2 (GeneID 89958) | 1 | 2.54
SAPCD2 (GeneID 89958) | 1 | 1.24
SAPCD2 (GeneID 89958) | 1 | 2.23
SAPCD2 (GeneID 89958) | 1 | 6.41 (active)
ICMT (GeneID 23463) | 1 | -0.61
ICMT (GeneID 23463) | 1 | 1.02
ICMT (GeneID 23463) | 1 | 0.29
ICMT (GeneID 23463) | 1 | 0.47
ERVW-1 (GeneID 30816) | 1 | 1.18
ERVW-1 (GeneID 30816) | 1 | 1.96
ERVW-1 (GeneID 30816) | 1 | 0.57
ERVW-1 (GeneID 30816) | 1 | 1.63
EFCAB13 (GeneID 124989) | 1 | -0.51
EFCAB13 (GeneID 124989) | 1 | 0.54
EFCAB13 (GeneID 124989) | 1 | 1.1
EFCAB13 (GeneID 124989) | 1 | 0.76
SH3BP5L (GeneID 80851) | 1 | 0.27
SH3BP5L (GeneID 80851) | 1 | 0.2
SH3BP5L (GeneID 80851) | 1 | -0.42
SH3BP5L (GeneID 80851) | 1 | 0.25
CRYGD (GeneID 1421) | 1 | 0.61
CRYGD (GeneID 1421) | 1 | 1.33
CRYGD (GeneID 1421) | 1 | 1.62
CRYGD (GeneID 1421) | 1 | 1.26
CT45A3 (GeneID 441519) | 1 | 0.85
CT45A3 (GeneID 441519) | 1 | 3.49 (active)
CT45A3 (GeneID 441519) | 1 | 2.81 (active)
CT45A3 (GeneID 441519) | 1 | 5.31 (active)
CT45A3 (GeneID 441519) | 2 | 2.46
CT45A3 (GeneID 441519) | 2 | 3.1 (active)
CT45A3 (GeneID 441519) | 2 | 1.66
CT45A3 (GeneID 441519) | 2 | 4.13 (active)
ZC3H14 (GeneID 79882) | 1 | -0.56
ZC3H14 (GeneID 79882) | 1 | -0.17
ZC3H14 (GeneID 79882) | 1 | -0.85
ZC3H14 (GeneID 79882) | 1 | -0.92

Continued; the last 9 above are carried over.
target gene | pool no. | TNF reporter robust z-score
CT45A3 (GeneID 441519) | 1 | 5.31 (active)
CT45A3 (GeneID 441519) | 2 | 2.46
CT45A3 (GeneID 441519) | 2 | 3.1 (active)
CT45A3 (GeneID 441519) | 2 | 1.66
CT45A3 (GeneID 441519) | 2 | 4.13 (active)
ZC3H14 (GeneID 79882) | 1 | -0.56
ZC3H14 (GeneID 79882) | 1 | -0.17
ZC3H14 (GeneID 79882) | 1 | -0.85
ZC3H14 (GeneID 79882) | 1 | -0.92
CTBS (GeneID 1486) | 1 | 2.24
CTBS (GeneID 1486) | 1 | 2.07
CTBS (GeneID 1486) | 1 | 0.81
CTBS (GeneID 1486) | 1 | 2.03
VWC2L (GeneID 402117) | 1 | -0.4
VWC2L (GeneID 402117) | 1 | -0.19
VWC2L (GeneID 402117) | 1 | -0.07
VWC2L (GeneID 402117) | 1 | -0.04
MYMK (GeneID 389827) | 1 | 0.49
MYMK (GeneID 389827) | 1 | 0.57
MYMK (GeneID 389827) | 1 | -1.21
MYMK (GeneID 389827) | 1 | -0.71
GPR87 (GeneID 53836) | 1 | 3.88 (active)
GPR87 (GeneID 53836) | 1 | 0.6
GPR87 (GeneID 53836) | 1 | -0.1
GPR87 (GeneID 53836) | 1 | 0.26
PDCD2 (GeneID 5134) | 1 | -1.58 (active)
PDCD2 (GeneID 5134) | 1 | -1.73 (active)
PDCD2 (GeneID 5134) | 1 | -2.09 (active)
PDCD2 (GeneID 5134) | 1 | -1.42
THOC6 (GeneID 79228) | 1 | -0.36
THOC6 (GeneID 79228) | 1 | -0.34
THOC6 (GeneID 79228) | 1 | 0.21
THOC6 (GeneID 79228) | 1 | 0.42
PDZD11 (GeneID 51248) | 1 | 0.83
PDZD11 (GeneID 51248) | 1 | 0.46
PDZD11 (GeneID 51248) | 1 | 0.27
PDZD11 (GeneID 51248) | 1 | 0.59
ESRP2 (GeneID 80004) | 1 | -0.43
ESRP2 (GeneID 80004) | 1 | 0.52
ESRP2 (GeneID 80004) | 1 | -0.29
ESRP2 (GeneID 80004) | 1 | -0.72
RMP24 (GeneID 83608) | 1 | -1.27
RMP24 (GeneID 83608) | 1 | -0.66
RMP24 (GeneID 83608) | 1 | -1.01
RMP24 (GeneID 83608) | 1 | -0.82
MDFIC (GeneID 29969) | 1 | 0.27
MDFIC (GeneID 29969) | 1 | 0.61
MDFIC (GeneID 29969) | 1 | 0.68
MDFIC (GeneID 29969) | 1 | 1.26
SERPING1 (GeneID 710) | 1 | -1.2
SERPING1 (GeneID 710) | 1 | -1.1
SERPING1 (GeneID 710) | 1 | -0.42
SERPING1 (GeneID 710) | 1 | -0.49
